Reference: patent US20030152514A1
Results are given in words; binding and its absence hold for the method and conditions named. Some results given as binding are weak or reduced against the parent protein; the word gives no strength.

Sequences of proteins named here, by UniProt entry; tags and fusion partners are left off. Residues count along the entry.
UniProt P43121, residues 24-559: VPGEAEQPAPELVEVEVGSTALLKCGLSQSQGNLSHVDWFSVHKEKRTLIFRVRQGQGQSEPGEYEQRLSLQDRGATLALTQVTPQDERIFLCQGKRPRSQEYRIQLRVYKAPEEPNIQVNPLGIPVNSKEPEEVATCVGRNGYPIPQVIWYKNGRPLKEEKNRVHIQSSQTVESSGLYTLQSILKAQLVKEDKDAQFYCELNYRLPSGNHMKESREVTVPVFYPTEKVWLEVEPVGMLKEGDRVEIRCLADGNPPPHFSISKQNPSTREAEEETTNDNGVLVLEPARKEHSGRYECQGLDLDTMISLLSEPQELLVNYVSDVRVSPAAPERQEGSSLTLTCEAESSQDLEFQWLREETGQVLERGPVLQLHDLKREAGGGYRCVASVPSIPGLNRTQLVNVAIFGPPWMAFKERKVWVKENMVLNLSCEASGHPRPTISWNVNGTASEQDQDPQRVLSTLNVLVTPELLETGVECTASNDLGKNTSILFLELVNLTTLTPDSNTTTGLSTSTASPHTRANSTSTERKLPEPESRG

B1: anti-MUC18 antibody c3.10 (antibody, human IgG2, V domains shown)
VH: QVQLQESGPGLVKPSETLSLTCTVSGGSISSYYWSWIRQPPGKGLEWIGYIYYTWTTNYNPSLKSRVTISVDTSKNQFSLRLSSVTAADTALYYCARDQGQWLLPDAFDIWGQGTMVTVSS
VL: DIQMTQSPSSLSASVGDRVTITCRASQSISNYLNWYQQKPGKAPKLLIYGASSLQSGVPSRFSGSGSGTDFTLTISSLQPEDFATYYCRQSYSTPPECSFGQGTKLEIK
B2: anti-MUC18 antibody c3.22 (antibody, human IgG2, V domains shown)
VH: QVQLQESGPGLVKPSQTLSLTCTVSGGSISSGGYYWTWIRQHPGKGLEWIGFIYYSGSTYYNPSLKSRVTISVDTSKNQFSLKLSSVTAADTAVYYCAREGDGFDYWGQGTLVTVSS
VL: DIQMTQSPSSLSASVGDRVTITCRASQGIRNDLGWYQQKPGKAPKRLIYAASSLQSGVPSRFSGSGSGTEFTLTISSLQPEDFATYYCLQHNSYPLTFGGGTKVEIK
B3: anti-MUC18 antibody c3.27 (antibody, human IgG2, V domains shown)
VH: QVQLQESGPGLVKPSETLSLTCTVSGGSISSYYWSWIRQPPGKGLEWIGYIYYTWTSNYNPSLKSRVTISVDTSKNQFSLRLSSVTAADTAVYYCARDQGQWLLPDAFDIWGQGTMVTVSS
VL: DIQMTQSPSSLSASVGDRVTITCRASQGIRNDLGWYQQKPGKAPKRLIYAASSLQSGVPSRFSGSGSGTEFTLTISSLQPEDFATYYCLQHNSYPWTFGQGTKVEIK
B4: anti-MUC18 antibody c3.45 (antibody, human IgG2, V domains shown)
VH: QVQLVQSGAEVKKPGASVKVSCKASGYTFFSYGFSWVRQAPGQGLEWLGWISAYNGNTNYAQKLQGRVTMTTDTSTSTAYMELRSLRSDDTAVYYCARETKVRGVHYYGMDVWGQGTTVTVSS
VL: DIVMTQSPDSLAVSLGERATIICKSSQSILYSSNNKNYLGWYQQKPGQPPKLLIYWASTRESGVPARFSGSGSGTDFTLTINSLQAEDVAVYYCQQYYSTPRSFGQGTMVEIK
B5: anti-MUC18 antibody c6.9 (also independently cloned as c6.12) (antibody, human IgG2, V domains shown)
VH: QVQLEQSGPGLVKPSETLSLTCTVSGGSISSGTYHWSWIRQHPGRGLEWIGYIYYSGSTYHNPSLKSRITISVDTSKNQFSLKLSSVTAADTAVYYCARGGDGYRYWGQGTLVTVSS
VL: EIVMTQSPATLSVSPGERATLSCRASQSISNNFAWYQQKPGQAPRLLIFGASTRATGIPARFSGSGSGTEFTLTISSLQSEDFAVYYCQQYNNWPRTFGQGTKVEIK
B6: anti-MUC18 antibody c6.2 (antibody, human IgG2, V domains shown)
VH: QVQLQESGPGLVKPSETLSLTCTVSGGSISTYYWSWIRQPPGKGLEWIGYIYYTGNTYYNPSLKSRVTVSVDTSKNQFSLKLNSVTAADTAVYYCARDPGQWLVPDAFDIWGQGTMVSVSS
VL: DIVMTQSPLSLPVIPGEPASISCRSSQSLLQSNGNNYLDWYLQKPGQSPQLLIYLGSNRASGVPDRFSGSGSGTDFTLKISRVEADDVGIYYCMQALQIPLTFGGGTKVEIK

Target: MUC18 antigen coated on ELISA plates (hybridoma screen) (human) (UniProt P43121)
Experiment: antigen-specific ELISA of hybridoma supernatants on antigen coated plates

binding, binds:
B1
B2
B3
B4
B5
B6
